Compound in experiment [1]: ClCC(=O)N[C@@H]1CCCc2ccccc12
The experiment in a line: log2 mean competition ratio of IA-DTB cysteine labelling (DMSO/compound) (log2 ratio); higher = stronger cysteine engagement by compound. Conditions: treatment time: 4 h, cell line lysate: HEK293T. How it is done: (§1)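 IA-DTB competitive cysteine chemoproteomics in HEK293T RIPA lysate. Lysates were treated with compound 29 or 30 at 50 or 200 µM for 4 h, then IA-DTB (500 µM, 1 h), trypsin-digested, NeutrAvidin-enriched and analysed by diaPASEF. Competition ratio = intensity DMSO / intensity compound (n=4 treated, n=64 DMSO); binding: mean log2 CR ≥ 1 and p ≤ 0.05 plus QC filters. Target is the cysteine site.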

Sequences of proteins named here, by UniProt entry; tags and fusion partners are left off. A change or cut given only in a name is not applied to a line headed by its entry. Residues count along the entry.
UniProt P09110, 139-158: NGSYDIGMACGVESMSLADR
UniProt P09110, 217-237: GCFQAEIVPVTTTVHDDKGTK
UniProt P16219, 149-171: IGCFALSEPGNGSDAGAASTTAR
UniProt Q15057: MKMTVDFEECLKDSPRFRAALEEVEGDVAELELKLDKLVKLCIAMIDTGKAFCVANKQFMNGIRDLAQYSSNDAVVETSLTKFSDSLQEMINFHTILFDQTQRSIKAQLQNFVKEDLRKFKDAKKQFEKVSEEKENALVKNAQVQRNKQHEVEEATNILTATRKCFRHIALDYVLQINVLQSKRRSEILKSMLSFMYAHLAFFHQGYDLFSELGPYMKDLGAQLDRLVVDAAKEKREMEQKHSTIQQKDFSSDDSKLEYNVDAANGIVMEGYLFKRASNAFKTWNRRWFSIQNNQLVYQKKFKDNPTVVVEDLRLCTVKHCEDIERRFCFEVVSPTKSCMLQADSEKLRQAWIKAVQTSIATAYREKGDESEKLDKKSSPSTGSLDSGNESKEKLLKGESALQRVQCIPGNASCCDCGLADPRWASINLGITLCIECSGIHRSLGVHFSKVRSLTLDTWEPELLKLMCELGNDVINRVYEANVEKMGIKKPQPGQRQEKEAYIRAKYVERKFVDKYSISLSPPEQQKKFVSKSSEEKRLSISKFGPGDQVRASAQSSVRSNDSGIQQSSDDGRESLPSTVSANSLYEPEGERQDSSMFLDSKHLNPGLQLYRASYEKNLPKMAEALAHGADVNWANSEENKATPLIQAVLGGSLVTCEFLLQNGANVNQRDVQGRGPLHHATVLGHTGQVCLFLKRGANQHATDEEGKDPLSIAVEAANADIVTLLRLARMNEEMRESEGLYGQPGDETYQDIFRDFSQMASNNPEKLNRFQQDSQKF
UniProt Q9NRK6, 570-605: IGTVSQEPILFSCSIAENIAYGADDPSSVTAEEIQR
UniProt P33897, 713-745: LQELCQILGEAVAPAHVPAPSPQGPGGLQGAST
UniProt Q9H7C9: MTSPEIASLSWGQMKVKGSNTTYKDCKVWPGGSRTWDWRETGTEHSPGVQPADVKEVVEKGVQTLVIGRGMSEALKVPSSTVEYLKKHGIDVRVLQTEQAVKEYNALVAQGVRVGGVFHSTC
UniProt Q8WTS1, 298-318: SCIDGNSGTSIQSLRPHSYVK
UniProt P08183: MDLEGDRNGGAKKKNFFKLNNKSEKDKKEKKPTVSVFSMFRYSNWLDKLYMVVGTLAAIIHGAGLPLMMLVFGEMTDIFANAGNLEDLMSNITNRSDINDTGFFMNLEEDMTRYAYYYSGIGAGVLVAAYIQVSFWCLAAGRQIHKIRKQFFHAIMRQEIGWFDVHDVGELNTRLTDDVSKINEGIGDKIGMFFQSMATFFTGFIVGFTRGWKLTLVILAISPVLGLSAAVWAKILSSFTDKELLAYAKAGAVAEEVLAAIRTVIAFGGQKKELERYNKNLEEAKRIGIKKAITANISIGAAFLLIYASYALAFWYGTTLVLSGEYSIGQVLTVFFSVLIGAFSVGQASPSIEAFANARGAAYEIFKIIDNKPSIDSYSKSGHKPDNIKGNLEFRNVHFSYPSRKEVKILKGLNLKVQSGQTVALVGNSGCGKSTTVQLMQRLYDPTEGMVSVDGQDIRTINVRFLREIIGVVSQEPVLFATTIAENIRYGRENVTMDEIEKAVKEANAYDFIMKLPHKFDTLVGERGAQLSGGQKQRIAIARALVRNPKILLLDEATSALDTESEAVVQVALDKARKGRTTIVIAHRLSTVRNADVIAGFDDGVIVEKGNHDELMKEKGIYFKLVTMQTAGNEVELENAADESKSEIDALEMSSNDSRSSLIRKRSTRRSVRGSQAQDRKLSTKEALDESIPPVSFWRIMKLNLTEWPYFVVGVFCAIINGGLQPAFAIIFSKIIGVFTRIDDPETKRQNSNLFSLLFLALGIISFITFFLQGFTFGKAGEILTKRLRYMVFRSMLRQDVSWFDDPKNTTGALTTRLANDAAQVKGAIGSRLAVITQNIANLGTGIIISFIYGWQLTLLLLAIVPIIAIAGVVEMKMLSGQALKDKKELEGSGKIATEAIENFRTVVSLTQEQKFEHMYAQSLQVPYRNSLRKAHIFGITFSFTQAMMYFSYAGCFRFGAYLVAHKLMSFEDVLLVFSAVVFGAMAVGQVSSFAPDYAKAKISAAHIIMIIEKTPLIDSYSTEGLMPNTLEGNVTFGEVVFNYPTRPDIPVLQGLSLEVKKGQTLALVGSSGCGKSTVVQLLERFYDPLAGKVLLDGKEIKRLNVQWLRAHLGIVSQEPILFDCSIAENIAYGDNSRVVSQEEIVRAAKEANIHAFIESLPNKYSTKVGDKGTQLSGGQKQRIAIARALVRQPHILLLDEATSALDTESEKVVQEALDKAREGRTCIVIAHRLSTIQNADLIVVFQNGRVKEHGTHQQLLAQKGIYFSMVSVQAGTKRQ
UniProt Q9UG63: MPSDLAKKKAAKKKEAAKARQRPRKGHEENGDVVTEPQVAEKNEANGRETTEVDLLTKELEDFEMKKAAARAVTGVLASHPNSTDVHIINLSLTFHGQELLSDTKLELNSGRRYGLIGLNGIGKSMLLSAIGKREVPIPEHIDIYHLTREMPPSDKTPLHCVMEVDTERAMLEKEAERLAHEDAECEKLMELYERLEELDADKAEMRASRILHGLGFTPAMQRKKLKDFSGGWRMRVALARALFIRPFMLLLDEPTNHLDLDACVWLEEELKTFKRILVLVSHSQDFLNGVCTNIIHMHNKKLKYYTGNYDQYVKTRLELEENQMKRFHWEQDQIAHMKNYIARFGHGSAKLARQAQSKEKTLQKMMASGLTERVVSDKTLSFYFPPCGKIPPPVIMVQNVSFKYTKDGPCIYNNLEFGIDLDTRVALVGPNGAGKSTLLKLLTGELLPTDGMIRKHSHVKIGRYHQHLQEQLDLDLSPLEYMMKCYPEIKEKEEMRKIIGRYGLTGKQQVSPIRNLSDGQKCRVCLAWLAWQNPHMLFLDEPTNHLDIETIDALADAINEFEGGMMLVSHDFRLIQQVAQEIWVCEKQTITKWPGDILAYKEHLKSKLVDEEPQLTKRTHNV
UniProt Q5JTZ9, 902-922: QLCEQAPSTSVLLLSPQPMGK
UniProt Q5JTZ9, whole entry, looked up: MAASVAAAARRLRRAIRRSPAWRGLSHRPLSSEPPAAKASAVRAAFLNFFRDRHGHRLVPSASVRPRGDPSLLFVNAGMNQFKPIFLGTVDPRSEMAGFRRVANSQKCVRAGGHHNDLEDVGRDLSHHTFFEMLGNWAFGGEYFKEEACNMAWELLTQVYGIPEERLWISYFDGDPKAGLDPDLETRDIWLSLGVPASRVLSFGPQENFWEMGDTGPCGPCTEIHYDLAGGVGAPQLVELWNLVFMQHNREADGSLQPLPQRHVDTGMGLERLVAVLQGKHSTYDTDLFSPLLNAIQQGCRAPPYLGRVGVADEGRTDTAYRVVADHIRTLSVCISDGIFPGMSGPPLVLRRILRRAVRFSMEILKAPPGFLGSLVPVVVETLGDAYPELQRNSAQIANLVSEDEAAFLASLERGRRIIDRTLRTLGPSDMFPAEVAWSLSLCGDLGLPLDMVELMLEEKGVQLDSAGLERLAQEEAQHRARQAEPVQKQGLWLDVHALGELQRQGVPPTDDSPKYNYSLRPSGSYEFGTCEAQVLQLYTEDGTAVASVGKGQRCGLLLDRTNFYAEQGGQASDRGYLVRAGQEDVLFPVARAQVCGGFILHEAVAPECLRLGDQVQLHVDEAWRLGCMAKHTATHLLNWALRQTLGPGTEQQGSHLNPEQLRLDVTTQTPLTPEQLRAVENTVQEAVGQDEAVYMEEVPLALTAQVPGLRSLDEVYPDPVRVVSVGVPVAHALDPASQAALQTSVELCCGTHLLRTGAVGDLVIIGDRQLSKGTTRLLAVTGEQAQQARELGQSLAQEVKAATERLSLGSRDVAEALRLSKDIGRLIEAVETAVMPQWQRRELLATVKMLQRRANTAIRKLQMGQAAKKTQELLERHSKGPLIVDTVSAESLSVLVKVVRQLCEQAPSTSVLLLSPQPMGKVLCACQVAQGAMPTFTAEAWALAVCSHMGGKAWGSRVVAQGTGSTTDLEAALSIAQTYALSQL
UniProt O95870: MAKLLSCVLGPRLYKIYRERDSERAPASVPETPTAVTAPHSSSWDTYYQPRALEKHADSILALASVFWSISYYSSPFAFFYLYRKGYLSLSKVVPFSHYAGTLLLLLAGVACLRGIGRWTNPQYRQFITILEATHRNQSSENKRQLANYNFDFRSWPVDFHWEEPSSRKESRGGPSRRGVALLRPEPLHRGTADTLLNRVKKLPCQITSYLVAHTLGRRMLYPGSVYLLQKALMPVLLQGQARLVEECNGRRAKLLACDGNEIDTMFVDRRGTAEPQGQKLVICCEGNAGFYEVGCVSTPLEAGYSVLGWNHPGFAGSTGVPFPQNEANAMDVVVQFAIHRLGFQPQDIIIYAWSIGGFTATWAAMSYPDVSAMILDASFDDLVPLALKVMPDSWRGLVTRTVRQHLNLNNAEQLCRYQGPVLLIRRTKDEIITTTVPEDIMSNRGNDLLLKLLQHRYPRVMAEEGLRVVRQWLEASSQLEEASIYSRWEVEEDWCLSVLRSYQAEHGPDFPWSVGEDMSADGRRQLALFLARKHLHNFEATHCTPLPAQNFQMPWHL
UniProt Q8N2K0: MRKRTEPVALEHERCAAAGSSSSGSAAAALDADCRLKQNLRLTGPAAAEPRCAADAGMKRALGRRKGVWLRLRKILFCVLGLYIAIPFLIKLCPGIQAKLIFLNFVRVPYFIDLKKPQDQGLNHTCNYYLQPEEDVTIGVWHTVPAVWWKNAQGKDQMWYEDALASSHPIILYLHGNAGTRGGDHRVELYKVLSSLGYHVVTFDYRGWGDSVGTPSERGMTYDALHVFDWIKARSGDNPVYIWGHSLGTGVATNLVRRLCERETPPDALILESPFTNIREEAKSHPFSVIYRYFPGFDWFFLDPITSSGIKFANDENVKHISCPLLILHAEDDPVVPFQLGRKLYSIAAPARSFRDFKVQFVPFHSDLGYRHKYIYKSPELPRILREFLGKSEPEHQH
UniProt Q9BZC7, 1362-1382: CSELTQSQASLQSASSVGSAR
UniProt Q9BTE6: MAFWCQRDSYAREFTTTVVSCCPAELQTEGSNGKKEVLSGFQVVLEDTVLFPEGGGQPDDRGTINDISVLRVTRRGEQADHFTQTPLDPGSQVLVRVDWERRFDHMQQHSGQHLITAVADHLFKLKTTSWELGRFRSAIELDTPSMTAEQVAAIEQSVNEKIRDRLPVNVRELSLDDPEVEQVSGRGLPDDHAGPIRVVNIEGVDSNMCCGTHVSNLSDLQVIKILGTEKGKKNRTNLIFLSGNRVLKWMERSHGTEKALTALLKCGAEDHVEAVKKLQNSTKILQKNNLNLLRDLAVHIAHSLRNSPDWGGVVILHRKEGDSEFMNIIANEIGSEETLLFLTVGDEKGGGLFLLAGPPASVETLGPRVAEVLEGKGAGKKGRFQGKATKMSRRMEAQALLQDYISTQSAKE
UniProt Q9NUT2: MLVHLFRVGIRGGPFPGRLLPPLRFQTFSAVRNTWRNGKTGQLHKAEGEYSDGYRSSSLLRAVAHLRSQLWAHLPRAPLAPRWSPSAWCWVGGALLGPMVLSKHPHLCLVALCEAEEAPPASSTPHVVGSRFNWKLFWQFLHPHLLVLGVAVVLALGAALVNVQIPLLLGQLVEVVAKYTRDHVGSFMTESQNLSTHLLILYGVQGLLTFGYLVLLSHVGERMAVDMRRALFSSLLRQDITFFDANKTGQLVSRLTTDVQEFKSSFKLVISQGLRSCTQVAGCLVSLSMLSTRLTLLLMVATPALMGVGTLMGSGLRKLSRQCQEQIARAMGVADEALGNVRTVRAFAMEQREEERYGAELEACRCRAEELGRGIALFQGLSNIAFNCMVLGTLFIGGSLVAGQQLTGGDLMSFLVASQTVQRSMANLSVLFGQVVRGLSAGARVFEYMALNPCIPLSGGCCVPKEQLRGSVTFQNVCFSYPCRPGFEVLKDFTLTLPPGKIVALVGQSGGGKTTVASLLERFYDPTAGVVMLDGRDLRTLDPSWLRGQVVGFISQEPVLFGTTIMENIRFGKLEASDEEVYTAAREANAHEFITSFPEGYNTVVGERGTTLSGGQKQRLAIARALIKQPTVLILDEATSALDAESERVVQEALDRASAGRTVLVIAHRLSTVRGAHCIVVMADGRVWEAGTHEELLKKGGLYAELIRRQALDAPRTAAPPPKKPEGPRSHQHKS
UniProt Q9UKU7: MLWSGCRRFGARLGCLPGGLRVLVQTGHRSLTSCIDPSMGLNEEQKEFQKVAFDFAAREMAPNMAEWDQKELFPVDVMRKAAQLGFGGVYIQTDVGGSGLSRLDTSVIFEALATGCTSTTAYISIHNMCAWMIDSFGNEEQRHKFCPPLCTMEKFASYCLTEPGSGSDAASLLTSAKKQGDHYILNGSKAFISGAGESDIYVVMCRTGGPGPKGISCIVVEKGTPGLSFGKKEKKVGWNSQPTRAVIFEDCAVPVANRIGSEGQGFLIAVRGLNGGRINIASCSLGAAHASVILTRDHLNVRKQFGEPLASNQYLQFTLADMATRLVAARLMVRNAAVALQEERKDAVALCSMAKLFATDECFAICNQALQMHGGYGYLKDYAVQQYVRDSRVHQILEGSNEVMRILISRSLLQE

Compound in experiment [2]: ClCC(=O)N[C@H]1CCCc2ccccc12
Described as above. Conditions: treatment time: 4 h, cell line lysate: HEK293T. How it is done: as §1

The text below walks through data of the supplement of paper PMC11732987, “Enantioselective OTUD7B fragment discovery through chemoproteomics screening and high-throughput optimisation” (Communications Chemistry, 2025).

This is one part of the list. The data scatter; read single values as rough.

On to ABCC10 C1425 (UniProt Q5T3U5), for which the “log2 mean competition ratio” value was -0.199 in experiment [1] (50 µM) and -0.00674 in experiment [1] (200 µM).

As to ACAD9 C271 (UniProt Q9H845), the “log2 mean competition ratio” value in experiment [1] (50 µM) is -0.0944; in experiment [1] (200 µM), -0.157.

Consider ACACA C1297 (UniProt Q13085), for which the “log2 mean competition ratio” value in experiment [1] (50 µM) is -0.268; in experiment [1] (200 µM), 0.039.

As for ACAA1 C148 (UniProt P09110), the results for the “log2 mean competition ratio” value in experiment [1] (50 µM) and in experiment [1] (200 µM) were 0.317 and 0.0751, respectively.

In the case of AASS C765, the figures for the “log2 mean competition ratio” value in experiment [1] (50 µM) and in experiment [1] (200 µM) were -0.312 and 0.0116, respectively.

For the target AASS C534, the “log2 mean competition ratio” value in experiment [1] (50 µM) was -0.0113; in experiment [1] (200 µM), 0.0134.

In the case of AAMP C428 (UniProt Q13685), the “log2 mean competition ratio” value in experiment [1] (50 µM) was 0.137; in experiment [1] (200 µM), -0.0573.

With ACADS C246 (UniProt P16219), the entries for the “log2 mean competition ratio” value in experiment [1] (50 µM) and in experiment [1] (200 µM) were -0.0515 and -0.184, respectively.

As to ABCF1 C655, the results for the “log2 mean competition ratio” value in experiment [1] (50 µM) and in experiment [1] (200 µM) were -0.216 and -0.174, respectively.

On to ACAP2 C321 (UniProt Q15057), for which the “log2 mean competition ratio” value in experiment [1] (50 µM) was -0.005; in experiment [1] (200 µM), 0.1.

Turning to AASS C342, the entries for the “log2 mean competition ratio” value in experiment [1] (50 µM) and in experiment [1] (200 µM) were -0.306 and -0.249, respectively.

As for AASDH C13 (UniProt Q4L235), the “log2 mean competition ratio” value was 0.0178 in experiment [1] (50 µM) and -0.0208 in experiment [1] (200 µM).

In the case of AAK1 C288, the entries for the “log2 mean competition ratio” value in experiment [1] (50 µM) and in experiment [1] (200 µM) were 0.516 and 0.464, respectively.

Turning to AAMP C208 (UniProt Q13685), the “log2 mean competition ratio” value in experiment [1] (50 µM) is -0.00287; in experiment [1] (200 µM), 0.24.

ABL2 C415 (UniProt P42684): the entries for the “log2 mean competition ratio” value in experiment [1] (50 µM) and in experiment [1] (200 µM) were 0.0984 and 0.0469, respectively.

ABCB10 C582 (UniProt Q9NRK6): the “log2 mean competition ratio” value in experiment [1] (50 µM) was -0.355; in experiment [1] (200 µM), -0.343.

With ABHD6 C102 (UniProt Q9BV23), the “log2 mean competition ratio” value was -0.283 in experiment [1] (50 µM) and -0.0419 in experiment [1] (200 µM).

For ABCD1 C717 (UniProt P33897), the “log2 mean competition ratio” value was -0.00823 in experiment [1] (50 µM) and 0.0343 in experiment [1] (200 µM).

As for AAMDC C122 (UniProt Q9H7C9), the “log2 mean competition ratio” value in experiment [1] (50 µM) came to 0.139; in experiment [1] (200 µM), 0.105.

For the target ACAA1 C218 (UniProt P09110), the “log2 mean competition ratio” value is -0.0802 in experiment [1] (50 µM) and -0.254 in experiment [1] (200 µM).

Regarding ACACA C407 (UniProt Q13085), the entries for the “log2 mean competition ratio” value in experiment [1] (50 µM) and in experiment [1] (200 µM) were -0.0392 and -0.44, respectively.

As to ABHD5 C140 (UniProt Q8WTS1), the “log2 mean competition ratio” value in experiment [1] (50 µM) is -0.251; in experiment [1] (200 µM) it was 0.132.

On to ABCB1 C431 (UniProt P08183), for which the “log2 mean competition ratio” value was 0.0511 in experiment [1] (50 µM) and -0.354 in experiment [1] (200 µM).

Regarding ABCF2 C586 (UniProt Q9UG63), the “log2 mean competition ratio” value in experiment [1] (50 µM) came out at 0.0347; in experiment [1] (200 µM) it was 0.0664.

As to ABCD1 C511 (UniProt P33897), the “log2 mean competition ratio” value in experiment [1] (50 µM) turned out to be 0.105; in experiment [1] (200 µM) it was 0.136.

Take ABCC5 C280 (UniProt O15440): the entries for the “log2 mean competition ratio” value in experiment [1] (50 µM) and in experiment [1] (200 µM) were -0.459 and -0.0452, respectively.

AARS2 C904 (UniProt Q5JTZ9): the figures for the “log2 mean competition ratio” value in experiment [1] (50 µM) and in experiment [1] (200 µM) were -0.0927 and -0.299, respectively.

Regarding AAK1 C193, the “log2 mean competition ratio” value in experiment [1] (50 µM) was 0.263; in experiment [1] (200 µM) it was -0.0861.

ABHD16A C248 (UniProt O95870): the results for the “log2 mean competition ratio” value in experiment [1] (50 µM) and in experiment [1] (200 µM) were -0.252 and -0.0255, respectively.

ABR C346 (UniProt Q12979): the “log2 mean competition ratio” value stood at 0.0137 in experiment [1] (50 µM) and 0.0183 in experiment [1] (200 µM).

In the case of ABL2 C510 (UniProt P42684), the “log2 mean competition ratio” value was -0.0308 in experiment [1] (50 µM) and -0.285 in experiment [1] (200 µM).

As for ACADSB C261 (UniProt P45954), the “log2 mean competition ratio” value turned out to be 0.304 in experiment [1] (50 µM) and 0.296 in experiment [1] (200 µM).

For the target ABHD5 C299 (UniProt Q8WTS1), the “log2 mean competition ratio” value was -0.00156 in experiment [1] (50 µM) and 0.00924 in experiment [1] (200 µM).

Regarding ABHD12 C52 (UniProt Q8N2K0), the “log2 mean competition ratio” value in experiment [1] (50 µM) amounted to 0.00743; in experiment [1] (200 µM) it was 0.178.

As to ABR C201 (UniProt Q12979), the “log2 mean competition ratio” value in experiment [1] (50 µM) came to 0.508; in experiment [1] (200 µM), 0.148.

ABCA2 C1362 (UniProt Q9BZC7): the “log2 mean competition ratio” value is 0.264 in experiment [1] (50 µM), 0.473 in experiment [1] (200 µM) and -0.00875 in experiment [2] (200 µM).

In the case of AAK1 C87, the figures for the “log2 mean competition ratio” value in experiment [1] (50 µM) and in experiment [1] (200 µM) were -0.00163 and 0.0585, respectively.

Regarding ACACA C1396 (UniProt Q13085), the “log2 mean competition ratio” value is -0.0564 in experiment [1] (50 µM) and -0.254 in experiment [1] (200 µM).

With ACAT1 C126, the “log2 mean competition ratio” value was 0.565 in experiment [1] (50 µM) and 2.48 in experiment [1] (200 µM).

Turning to AARS1 C671 (UniProt H3BPK7), the “log2 mean competition ratio” value in experiment [1] (50 µM) was -0.235; in experiment [1] (200 µM), -0.491.

In the case of ACADVL C237 (UniProt P49748), the “log2 mean competition ratio” value in experiment [1] (50 µM) is -0.0373; in experiment [1] (200 µM), -0.121.

Consider ACAP2 C10 (UniProt Q15057), for which the “log2 mean competition ratio” value in experiment [1] (50 µM) was -0.194; in experiment [1] (200 µM) it was 0.767.

For AARS2 C555 (UniProt Q5JTZ9), the “log2 mean competition ratio” value in experiment [1] (50 µM) was 0.354; in experiment [1] (200 µM) it was -0.166.

In the case of ABCD1 C39 (UniProt P33897), the “log2 mean competition ratio” value in experiment [1] (50 µM) is -0.333; in experiment [1] (200 µM), 0.224.

With AAK1 C319, the entries for the “log2 mean competition ratio” value in experiment [1] (50 µM) and in experiment [1] (200 µM) were -0.231 and -0.408, respectively.

For the target ABHD6 C134 (UniProt Q9BV23), the “log2 mean competition ratio” value in experiment [1] (50 µM) was -0.255; in experiment [1] (200 µM), 0.13.

Take AARSD1 C266 (UniProt Q9BTE6): the results for the “log2 mean competition ratio” value in experiment [1] (50 µM) and in experiment [1] (200 µM) were -0.239 and -0.255, respectively.

With ACAP2 C53 (UniProt Q15057), the results for the “log2 mean competition ratio” value in experiment [1] (50 µM) and in experiment [1] (200 µM) were -0.162 and -0.233, respectively.

Regarding ACADSB C385 (UniProt P45954), the “log2 mean competition ratio” value in experiment [1] (50 µM) worked out at 0.21; in experiment [1] (200 µM), 0.0988.

Consider ABRAXAS2 C237 (UniProt Q15018), for which the “log2 mean competition ratio” value is -0.196 in experiment [1] (50 µM), -0.102 in experiment [1] (200 µM), -0.317 in experiment [2] (50 µM) and -0.277 in experiment [2] (200 µM).

For ABCC1 C1479 (UniProt P33527), the “log2 mean competition ratio” value is -0.0514 in experiment [1] (50 µM) and 0.0857 in experiment [1] (200 µM).

Take ABCB8 C323 (UniProt Q9NUT2): the “log2 mean competition ratio” value was -0.121 in experiment [1] (50 µM) and 0.346 in experiment [1] (200 µM).

As for ABHD16A C416 (UniProt O95870), the “log2 mean competition ratio” value in experiment [1] (50 µM) is 0.0197; in experiment [1] (200 µM), 0.329.

Turning to ABL1 C464 (UniProt P00519), the entries for the “log2 mean competition ratio” value in experiment [1] (50 µM) and in experiment [1] (200 µM) were 0.165 and -0.22, respectively.

In the case of ABCF1 C515, the “log2 mean competition ratio” value in experiment [1] (50 µM) was -0.965; in experiment [1] (200 µM), 0.698.

ACACA C813 (UniProt Q13085): the “log2 mean competition ratio” value in experiment [1] (50 µM) turned out to be 0.0921; in experiment [1] (200 µM) it was 0.534.

Consider AAAS C368 (UniProt Q9NRG9), for which the “log2 mean competition ratio” value in experiment [1] (50 µM) is -0.0221; in experiment [1] (200 µM) it was -0.0278.

Take ABCC1 C730 (UniProt P33527): the results for the “log2 mean competition ratio” value in experiment [1] (50 µM) and in experiment [1] (200 µM) were -0.0559 and -0.204, respectively.

In the case of ABCF3 C522 (UniProt Q9NUQ8), the figures for the “log2 mean competition ratio” value in experiment [1] (50 µM) and in experiment [1] (200 µM) were -0.0768 and -0.00877, respectively.

With ABHD10 C100 (UniProt Q9NUJ1), the entries for the “log2 mean competition ratio” value in experiment [1] (50 µM) and in experiment [1] (200 µM) were -0.39 and 0.209, respectively.

With ACADS C151 (UniProt P16219), the “log2 mean competition ratio” value was 0.201 in experiment [1] (50 µM) and 0.181 in experiment [1] (200 µM).

Take ACAD8 C351 (UniProt Q9UKU7): the “log2 mean competition ratio” value in experiment [1] (50 µM) is -0.0641; in experiment [1] (200 µM) it was 0.115.
